Assay results reported in publication PMC6760125.
Results are given in words; binding and its absence hold for the method and conditions named. In cells and extracts the contact can be indirect. A result given as binding can be weak or reduced; the word gives no strength.

Target: T1, phosphoinositide-dependent kinase 1 (human (endogenous in RERF-LC-AI)) (UniProt O15530)
T1 sequence: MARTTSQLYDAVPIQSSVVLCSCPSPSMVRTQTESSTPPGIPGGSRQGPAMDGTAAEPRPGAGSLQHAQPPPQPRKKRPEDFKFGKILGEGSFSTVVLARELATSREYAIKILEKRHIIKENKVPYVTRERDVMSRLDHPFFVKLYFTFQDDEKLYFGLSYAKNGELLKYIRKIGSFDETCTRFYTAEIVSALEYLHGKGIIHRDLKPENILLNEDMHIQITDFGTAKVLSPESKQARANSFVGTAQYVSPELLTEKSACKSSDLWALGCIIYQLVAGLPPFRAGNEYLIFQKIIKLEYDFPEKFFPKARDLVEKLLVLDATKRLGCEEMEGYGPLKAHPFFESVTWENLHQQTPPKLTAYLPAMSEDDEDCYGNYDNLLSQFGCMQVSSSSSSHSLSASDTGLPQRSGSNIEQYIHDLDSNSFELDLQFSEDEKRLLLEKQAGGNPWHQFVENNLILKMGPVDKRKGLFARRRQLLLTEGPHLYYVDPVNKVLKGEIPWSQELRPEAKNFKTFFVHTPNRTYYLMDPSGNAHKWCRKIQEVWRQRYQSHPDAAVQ
Test: co-IP; lysates of RERF-LC-AI cells treated with or without 10 μM chrysin, incubated with Protein G-sepharose and anti-PDK1 antibody for 16 h at 4 °C; washed four times with 150 mM NaCl, 0.5 mM EDTA, 0.5% Triton X-100, 50 mM Tris-HCl (pH 7.4); western blotting for Akt and PDK1

binding: binds
Substance: Akt (human (endogenous in RERF-LC-AI))
